From US20080031982A1 (Metaproteomics, LLC, priority 2006, published 2008)
For at least one compound, name, drawing or mass did not settle the structure.

Legend:
NF-κB = NF-κB DNA binding (TransAM), nuclear extracts of LPS-stimulated RAW 264.7 cells; format: cell-based, murine; details: LPS 4 hr
3T3-L1 adipocytes = assay: Lipogenesis in 3T3-L1 adipocytes (Oil Red O / BODIPY); format: cell-based, murine; details: relative to solvent and positive controls

SMILES	NF-κB binding (NF-κB)	adipogenic / lipogenic response (3T3-L1 adipocytes)
O=c1cc(N2CCOCC2)oc2c(-c3ccccc3)cccc12 [LY294002]	modest decrease	–
Cc1c(C)c2c(c(C)c1O)CCC(C)(COc1ccc(CC3SC(=O)NC3=O)cc1)O2 (centres unmarked) [Troglitazone, troglitazone]	–	induced lipogenesis
